Measured values from article PMC4270795.
No constants are given. Whether binding was seen depends on the method and setting. In cells and extracts the contact can be indirect.

The chains behind the UniProt entries cited, without tags or fusion partners.
UniProt O43524: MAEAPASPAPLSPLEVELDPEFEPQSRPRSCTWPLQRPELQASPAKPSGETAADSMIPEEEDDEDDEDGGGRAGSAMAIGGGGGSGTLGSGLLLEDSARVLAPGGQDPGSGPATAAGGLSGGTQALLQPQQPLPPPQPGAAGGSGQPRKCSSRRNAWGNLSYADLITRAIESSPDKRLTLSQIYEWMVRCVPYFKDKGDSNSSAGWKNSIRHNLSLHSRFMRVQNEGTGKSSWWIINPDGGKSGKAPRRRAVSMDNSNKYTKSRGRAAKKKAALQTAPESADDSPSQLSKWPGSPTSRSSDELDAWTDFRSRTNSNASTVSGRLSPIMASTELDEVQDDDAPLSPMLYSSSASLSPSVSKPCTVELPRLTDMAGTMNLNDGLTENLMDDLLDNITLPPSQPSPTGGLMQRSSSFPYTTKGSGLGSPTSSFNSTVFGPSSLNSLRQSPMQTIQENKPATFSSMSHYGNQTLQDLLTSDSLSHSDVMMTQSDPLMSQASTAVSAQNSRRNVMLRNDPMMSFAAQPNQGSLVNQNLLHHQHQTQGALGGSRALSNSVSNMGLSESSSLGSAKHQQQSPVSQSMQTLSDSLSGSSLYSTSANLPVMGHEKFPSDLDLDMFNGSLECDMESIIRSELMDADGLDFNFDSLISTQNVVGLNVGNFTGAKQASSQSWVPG

Target: HTLV-1 Tax oncoprotein (HTLV-1) (UniProt P03409)
Assay: co-IP; anti-Tax immunoprecipitation (clone 1A3; Tax blotted with clone LT4) from CHAPS-buffer lysates with protease inhibitors, 500 ug of proteins; primary CD4+ T cells transduced 48 h with LVPTax; isotype IgG1 as negative control; n = 4

Substance: FOXO3a transcription factor (from UniProt O43524 1-673)
- binding: no binding
